Reference: patent US4067997A, “Synergistic microbecidal composition and method” (priority 1976, dated 1978)
For at least one compound, name, drawing or mass did not settle the structure.

What was measured:
[1] = tested on: Streptococcus Group D; experiment: MIC, broth dilution (Examples I/II); assay type: cell-based; details: Group D Strep
Experimental: In order to establish comparative bactericidal and fungicidal results with homologous fatty acids, a series of experiments was performed with thirty straight-chain fatty acids and derivatives thereof. Eight different gram-negative and twelve different gram-positive organisms, representing a very broad spectrum of organisms, were used in these experiments including the fungus Candida (a yeast). Additionally, fatty acids were chosen to show the effects of saturation versus unsaturation, in the fatty acid claim. Standard solutions of the fatty acids and their derivatives were prepared by first dissolving the weighed compounds in 1 to 2 ml of 95% ethanol and immediately pouring this solution into 200 ml of Tripticase Soy Broth. These lipid compounds which are insoluble in water and broth precipitated into very small crystals or droplets. The tubes containing the suspension were warmed to approximately 70° C and were then placed in an ultrasonic tank for further solubilization of the lipid derivatives.
Standard solutions (or suspensions) at 1,000 μg/ml were twofold serially diluted with additional broth to a concentration of 125 μg/ml. A 4-ml amount of each dilution was then quickly, and with constant agitation, dispensed into appropriately labeled screw-capped glass tubes (16 by 125 mm). The tubes were sterilized with steam at 15 psi for 15 minutes. […]

[2] = tested on: E. coli; experiment: MIC, broth dilution (Example II); assay type: cell-based, Escherichia coli
Experimental: Proteus vulgaris, P. mirabilis (14273), P. rettgeri (9250), Escherichia coli, Serratia marcescens (13880), Enterobacter-Klebsiella, Pseudomonas aeruginosa (10145), and Salmonella typhimurium.
Standard solutions (1000 μg/ml) of three fatty acids and polyglycerol esters thereof were prepared as described in Example I. Also sucrose esters were prepared by transferring the weighed compounds (0.2 gm. dissolved in 1 ml absolute methanol) into 200 ml of sterile Trypticase Soy Broth (TSB). These standard solutions (1000 μg/ml) were twofold serially diluted with additional sterile broth to a concentration of 125 μg/ml. A 3.8 aliquot of each dilution was asceptically delivered into sterile screw-capped culture tubes. All tubes were incubated overnight at 36° C to insure sterility. The microorganisms used in this example were the same as those used in Example I.
The inoculum, 0.05 ml of an 13-24 hour TSB culture (approximately 10^9 organisms/ml) was asceptically delivered into all dilutions of the compounds, mixed well, and incubated at 36° C. A tube of inoculated broth without the compound served as a positive control and an uninoculated set of dilutions incubated along with the test dilutions, served as a negative control. […]

## CCCCCCCCCCC(O)C(=O)O (stereo not drawn) [α-hydroxylaurate]
[1]
  Inhibition in words: Neither compound was inhibitory
[2]
  Inhibition in words: Neither compound was inhibitory
